Measurements reported in PubChem BioAssay AID1224828 (NIAID, 2016)
Shown is an unselected part of about 17,000 reagents. 762 of all reagents (4.5%) were called active. 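Active calls include both raised and lowered p65 entry, mostly lowered; wells with fewer than 50 cells lack a z-score.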 Raw values are not corrected between plates. Reagents against one gene are numbered here.

Screen: 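Find genes required for NF-kappaB p65 moving into the nucleus after LPS in mouse macrophages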 (primary screen)
System: mouse RAW264.7 G9 macrophage reporter cells (GFP-p65, Tnf promoter-mCherry)
Knock-down reagent: siRNA pool against mouse genes, 100 nM
Time to read-out: 2 days siRNA transfection, then 40 min LPS before fixation
Challenge: LPS (Salmonella minnesota R595) at 10 ng/ml
Read-out: 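Microscopy ratio of nuclear to perinuclear-ring GFP-p65 signal, scaled to the plate median; gene score is the average of two replicate robust z-scores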
Reading the numbers: p65 translocation robust z-score: higher = more nuclear NF-kappaB p65 after LPS than the plate median; nuclear/cytoplasmic p65 ratio: higher = more nuclear NF-kappaB p65
Rule for the call: 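Active if robust z is above 3.3 (negative regulators) or below -1.56, the Tlr4 control median (positive regulators); activity score 50 or more; control wells not called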
Calls: active = hit (p65 shift raised or lowered); inactive = no clear change

With knock-down of Spon1, the record shows p65 translocation robust z-score 2.4; nuclear/cytoplasmic p65 ratio, rep 1 = 1.78; nuclear/cytoplasmic p65 ratio, rep 2 = 1.47; low cell count flag enough cells to score; inactive.
For Dcph1, the values are nuclear/cytoplasmic p65 ratio, rep 1 = 1.26; nuclear/cytoplasmic p65 ratio, rep 2 = 1.58; low cell count flag fewer than 50 cells per well; well left out of scoring; inactive.
With knock-down of Fam72a, the screen gave p65 translocation robust z-score -1.54; nuclear/cytoplasmic p65 ratio, rep 1 = 1.19; nuclear/cytoplasmic p65 ratio, rep 2 = 1.26; low cell count flag enough cells to score; inactive.
Depletion of Hspb3 came out at: p65 translocation robust z-score -0.79; nuclear/cytoplasmic p65 ratio, rep 1 = 1.25; nuclear/cytoplasmic p65 ratio, rep 2 = 1.35; low cell count flag enough cells to score; inactive.
For Derl1, the entry reads p65 translocation robust z-score -0.75; nuclear/cytoplasmic p65 ratio, rep 1 = 1.44; nuclear/cytoplasmic p65 ratio, rep 2 = 1.34; low cell count flag enough cells to score; inactive.
Arhgef26 gave nuclear/cytoplasmic p65 ratio, rep 1 = 1.57; nuclear/cytoplasmic p65 ratio, rep 2 = 1.5; low cell count flag fewer than 50 cells per well; well left out of scoring; inactive.
With knock-down of Mphosph9, the record shows p65 translocation robust z-score -0.85; nuclear/cytoplasmic p65 ratio, rep 1 = 1.34; nuclear/cytoplasmic p65 ratio, rep 2 = 1.23; low cell count flag enough cells to score; inactive.
With knock-down of Treh, the record shows p65 translocation robust z-score 0.72; nuclear/cytoplasmic p65 ratio, rep 1 = 1.4; nuclear/cytoplasmic p65 ratio, rep 2 = 1.32; low cell count flag enough cells to score; inactive.
With knock-down of Stk25 the results were p65 translocation robust z-score 1.95; nuclear/cytoplasmic p65 ratio, rep 1 = 1.99; nuclear/cytoplasmic p65 ratio, rep 2 = 1.64; low cell count flag enough cells to score; inactive.
Or8c10 gave nuclear/cytoplasmic p65 ratio, rep 1 = 1.17; nuclear/cytoplasmic p65 ratio, rep 2 = 1.09; low cell count flag fewer than 50 cells per well; well left out of scoring; inactive.
With knock-down of Zfp36l1 the results were p65 translocation robust z-score 0.52; nuclear/cytoplasmic p65 ratio, rep 1 = 1.61; nuclear/cytoplasmic p65 ratio, rep 2 = 1.62; low cell count flag enough cells to score; inactive.
Depletion of Or8k25 #1 came out at: p65 translocation robust z-score 1.51; nuclear/cytoplasmic p65 ratio, rep 1 = 1.85; nuclear/cytoplasmic p65 ratio, rep 2 = 1.83; low cell count flag enough cells to score; inactive.
Against Or8k25 #2, the values are p65 translocation robust z-score 2.08; nuclear/cytoplasmic p65 ratio, rep 1 = 1.67; nuclear/cytoplasmic p65 ratio, rep 2 = 1.7; low cell count flag enough cells to score; inactive.

Entries above whose gene name starts with S or s:
Spon1 | p65 translocation robust z-score = 2.4; nuclear/cytoplasmic p65 ratio, rep 1 = 1.78; nuclear/cytoplasmic p65 ratio, rep 2 = 1.47; low cell count flag = enough cells to score; Outcome = inactive
Stk25 | p65 translocation robust z-score = 1.95; nuclear/cytoplasmic p65 ratio, rep 1 = 1.99; nuclear/cytoplasmic p65 ratio, rep 2 = 1.64; low cell count flag = enough cells to score; Outcome = inactive
